Data from the supplement of paper PMC8256030.
Where “and” joins values, the source holds several entries; their conditions need not be identical. Identical values can stand only once. The list shows a part of the results. Single values are uncertain here, since repeats match poorly.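 HEK293T cells were given each compound shortly before transfection with a reporter in which red mCherry is followed by the SARS-CoV-2 frameshift element and then GFP in the −1 frame, so GFP appears only after frameshifting.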

What was measured:
[1] = tested on: SARS-CoV-2 -1 PRF reporter mCherry-FSE-GFP(-1); experiment: mCherry (red) intensity as percent of control; higher = higher upstream reporter expression; settings: 10 µM; 24 h; HEK293T
[2] = tested on: SARS-CoV-2 -1 PRF reporter mCherry-FSE-GFP(-1); experiment: percent effect, decrease of GFP/mCherry ratio (-1 PRF reporter) relative to controls; higher = stronger frameshift inhibition; settings: 10 µM; 24 h; HEK293T

Row | Compound | mCherry [1] | percent effect [2]
1 | NC(Cc1ccc(Cl)cc1)C(=O)O (centres undefined) [fenclonine] | 118% | 0.466%
2 | CCC[C@@H]1C[C@@H](C(=O)N[C@@H]([C@H]2O[C@H](SC)[C@H](O)[C@@H](O)[C@H]2O)[C@H](C)Cl)N(C)C1 | 96.1% | 0.376%
3 | CC(N)C12CC3CC(CC(C3)C1)C2 (centres undefined) | 101% | -2.39%
4 | NS(=O)(=O)c1cc2c(cc1Cl)N=C(CSCc1ccccc1)NS2(=O)=O | 122% | 1.25%
5 | CO[C@H]1/C=C/O[C@@]2(C)Oc3c(C)c(O)c4c(O)c(c5c(nc6cc(C)ccn65)c4c3C2=O)NC(=O)/C(C)=C\C=C\[C@H](C)[C@H](O)[C@@H](C)[C@@H](O)[C@@H](C)[C@H](OC(C)=O)[C@@H]1C | 90.3% | -3.8%
6 | C=C[C@H]1CN2CC[C@H]1C[C@H]2[C@H](O)c1ccnc2ccc(OC)cc12 [Qualaquin] | 97.2% | 1.59%
7 | O=C(O)CCc1nc(-c2ccccc2)c(-c2ccccc2)o1 [oxaprozin] | 109% | -2.57%
8 | CC(C)[C@H]1CC[C@H](C(=O)N[C@H](Cc2ccccc2)C(=O)O)CC1 [Nateglinide] | 91.6% | 6.42%
9 | CCN(CC)CCNC(=O)c1cc(Br)c(N)cc1OC [Bromopride] | 80.2% | -0.821%
10 | COc1cc2c(cc1OC)CC(=O)N(CCCN(C)C[C@H]1Cc3cc(OC)c(OC)cc31)CC2 [ivabradine] | 107% | -0.655%
11 | CC(=O)Nc1ccccc1 | 102% | -11.6%
12 | CCC[C@@H]1C[C@@H](C(=O)N[C@@H]([C@H]2O[C@H](SC)[C@H](O)[C@@H](O)[C@H]2O)[C@@H](C)O)N(C)C1 | 94.6% | -2.22%
13 | CC1(C)O[C@@H]2[C@@H](CO[C@@]3(COS(N)(=O)=O)OC(C)(C)O[C@@H]23)O1 [topiramate] | 87.2% | -1.89%
14 | C[C@H]1[C@H](NC(=O)/C(=N\OC(C)(C)C(=O)O)c2csc(N)n2)C(=O)N1S(=O)(=O)O [aztreonam] | 131% | 2.36%
15 | COc1ccc(C(=O)c2ccc(C)cc2)c(O)c1 [mexenone] | 110% | 0.796%
16 | O=C(NCCNCC(O)COc1ccc(O)cc1)N1CCOCC1 (centres undefined) [Xamoterol hemifumarate] | 80.9% | -0.125%
17 | CCCCCCCCCC(=O)N[C@H]1[C@H](Oc2c3cc4cc2Oc2ccc(cc2Cl)[C@@H](O[C@@H]2O[C@H](CO)[C@@H](O)[C@H](O)[C@H]2NC(C)=O)[C@@H]2NC(=O)[C@H](NC(=O)[C@@H]4NC(=O)[C@H]4NC(=O)[C@@H](Cc5ccc(c(Cl)c5)O3)NC(=O)[C@H](N)c3ccc(O)c(c3)Oc3cc(O)cc4c3)c3ccc(O)c(c3)-c3c(OC4O[C@H](CO)[C@@H](O)[C@H](O)[C@@H]4O)cc(O)cc3[C@@H](C(=O)O)NC2=O)O[C@H](CO)[C@@H](O)[C@@H]1O (some centres undefined) [teicoplanin] | 103% | -1.19%
18 | COc1cc2c(cc1OC)C(=O)C(CC1CCN(Cc3ccccc3)CC1)C2 (centres undefined) [donepezil] | 97.7% | -3.74%
19 | C=C1/C(=C\C=C2/CCC[C@]3(C)[C@@H]([C@H](C)/C=C/[C@H](C)C(C)C)CC[C@@H]23)C[C@@H](O)C[C@@H]1O [doxercalciferol] | 103% | -3.66%
20 | Cc1noc(NS(=O)(=O)c2ccc(N)cc2)c1C [sulfafurazole] | 117% | -0.692%
21 | C[N+]1(C)[C@@H]2C[C@@H](OC(=O)C(O)(c3cccs3)c3cccs3)C[C@H]1[C@@H]1O[C@@H]12 [Spiriva] | 100% | -1%
22 | CCCCc1nc(Cl)c(CO)n1Cc1ccc(-c2ccccc2-c2nnn[nH]2)cc1 [Cozaar] | 117% | -0.781%
23 | CCC(C(=O)NC(N)=O)c1ccccc1 (centres undefined) [pheneturide] | 143% | -1.14%

Row | Compound | mCherry [1] | percent effect [2]
24 | OC(c1cc(C(F)(F)F)nc2c(C(F)(F)F)cccc12)C1CCCCN1 (centres undefined) [mefloquine] | 114% | -1.33%
25 | CN(C)C(=O)C(CC[N@+]1([O-])CC[C@@](O)(c2ccc(Cl)cc2)CC1)(c1ccccc1)c1ccccc1 [loperamide oxide] | 95.2% | -4.93%
26 | CC1(C)S[C@@H]2[C@H](NC(=O)[C@H](C(=O)O)c3ccsc3)C(=O)N2[C@H]1C(=O)O [Ticar] | 112% | -4.72%
27 | O=C(O)c1cc(O)c2c(c1)C(C1c3cc(C(=O)O)cc(O)c3C(=O)c3c(OC4OC(CO)C(O)C(O)C4O)cccc31)c1cccc(OC3OC(CO)C(O)C(O)C3O)c1C2=O (centres undefined) | 104% | -0.338%
28 | COc1cccc(N(C)C(=S)Oc2ccc3c(c2)CCCC3)n1 [liranaftate] | 98% | 4.51%
29 | CCCCC[C@H](O)/C=C/[C@@H]1c2cc(CCCCC(=O)O)n(-c3ccccc3)c2C[C@H]1O [piriprost] | 103% | -4.84%
30 | CN(C)/N=N/c1[nH]cnc1C(N)=O [Dacarbazine] | 58.7% | -5.14%
31 | COc1cc(/C=C/C(=O)N2CCCCCCC2)cc(OC)c1OC [cinoctramide] | 94.8% | -0.878%
32 | COc1ncnc(NS(=O)(=O)c2ccc(N)cc2)c1OC [sulfadoxine] | 92.5% and 72.9% | 1.11% and 1.69%
33 | Cc1cnc(NC(=O)C2=C(O)c3ccccc3S(=O)(=O)N2C)s1 | 96.3% | -0.0806%
34 | CCC[C@@H]1C[C@@H](C(=O)N[C@@H]([C@H]2O[C@H](SC)[C@H](O)[C@@H](O)[C@H]2O)[C@@H](C)O)N(C)C1 [lincomycin] | 118% | -18.3%
35 | CCCn1c(=O)c(CCCOC(=O)NC)nc2ccccc21 [bamaquimast] | 101% | -1.76%
36 | CC(CN(C)C)CN1c2ccccc2CCc2ccccc21 (centres undefined) | 106% | -3.09%
37 | CC1(C)SCCN(S(=O)(=O)c2ccc(Oc3ccncc3)cc2)[C@H]1C(=O)NO [prinomastat] | 101% | -6.86%
38 | CCNC(=O)[C@@H]1CCCN1C(=O)[C@H](CCCNC(=N)N)NC(=O)[C@H](CC(C)C)NC(=O)[C@@H](COC(C)(C)C)NC(=O)[C@H](Cc1ccc(O)cc1)NC(=O)[C@H](CO)NC(=O)[C@H](Cc1c[nH]c2ccccc12)NC(=O)[C@H](Cc1cnc[nH]1)NC(=O)[C@@H]1CCC(=O)N1 [buserelin] | 102% | -0.805%
39 | CNC(=O)COc1cc2cc(Nc3nc(N4C[C@H](C)C[C@H](C)C4)ncc3Cl)ccc2n(C)c1=O | 80.1% | 0.272%
40 | CCOc1ccccc1OCC1CNCCO1 (centres undefined) [viloxazine] | 87.6% | 0.333%
41 | CCC[S+]([O-])c1ccc2[nH]c(NC(=O)OC)nc2c1 (centres undefined) [albendazole oxide] | 95.2% | -0.514%
42 | C[C@H](NC(=O)[C@@H]1CCC(=O)N1)C(=O)N[C@@H](CCCCN)C(=O)N[C@@H](CO)C(=O)N[C@@H](CCC(N)=O)C(=O)NCC(=O)NCC(=O)N[C@@H](CO)C(=O)N[C@@H](CC(N)=O)C(=O)O [nonathymulin] | 108% | -5.98%
43 | CCOc1ccc(NC(=O)CC(C)O)cc1 (centres undefined) [bucetin] | 103% | -0.514%
44 | CCN1C(=O)NC(c2ccccc2)C1=O (centres undefined) [ethotoin] | 108% | -2%
45 | Cc1cc2c(OCC(O)CNC(C)C)cccc2[nH]1 (centres undefined) [mepindolol] | 79.5% | -1.04%
46 | CC1(C)C[C@@H]1C(=O)N/C(=C\CCCCSC[C@H](N)C(=O)O)C(=O)O [cilastatin] | 92.3% | 4.24%

Row | Compound | mCherry [1] | percent effect [2]
47 | COc1ccc2cc([C@H](C)C(=O)O)ccc2c1 | 124% | -0.00122%
48 | N#CC(c1ccc(Cl)cc1)c1c(Cl)cc(-n2ncc(=O)[nH]c2=O)cc1Cl (centres undefined) [diclazuril] | 126% | -3.11%
49 | CN1CCN(C2=Nc3ccccc3Cc3ccccc32)CC1 [perlapine] | 67.9% | -12.3%
50 | Nc1nc(/C(=C/CC(=O)O)C(=O)N[C@@H]2C(=O)N3C(C(=O)O)=CCS[C@H]23)cs1 | 112% | 0.303%
51 | CC(=O)c1ccc2c(c1)C(=O)C1(CC1)O2 [spizofurone] | 99.5% | -5.57%
52 | CC1CC(OC(=O)C(O)c2ccccc2)CC(C)(C)N1C (centres undefined) | 131% | -0.385%
53 | O=C(NCCO[N+](=O)[O-])c1cccnc1 [nicorandil] | 88.1% | -2.36%
54 | Cc1oc2nc3c(c(NC(=O)CN4CCCC4=O)c2c1C)CCCC3 [coluracetam] | 106% | -2.65%
55 | CCN1CCN(C(=O)N[C@@H](C(=O)N[C@@H]2C(=O)N3C(C(=O)O)=C(CSc4nnnn4C)CS[C@H]23)c2ccc(O)cc2)C(=O)C1=O [Cefobid] | 96.3% and 108% | -2.99% and 1.52%
56 | COc1ccc2cc([C@H](C)CO)ccc2c1 | 113% | 0.097%
57 | CC[C@H](C)[C@@H]1NC(=O)[C@H](Cc2ccc(OC)cc2)NC(=O)CCCSC[C@@H](C(=O)N2CCC[C@H]2C(=O)N[C@@H](CC(C)C)C(=O)NCC(N)=O)NC(=O)[C@H](CC(N)=O)NC(=O)[C@H](CCC(N)=O)NC1=O | 121% | -1.7%
58 | Cc1cc(N)c2cc(NC(=O)Nc3ccc4nc(C)cc(N)c4c3)ccc2n1 [aminoquinuride] | 100% | -0.109%
59 | CCS(=O)(=O)c1ccc(F)cc1 [fluoresone] | 93.1% | -2.76%
60 | CC(=O)N[C@@H](CSC(C)=O)C(=O)O [dacisteine] | 89.1% | -2.43%
61 | CCC1=C(C)CN(C(=O)NCCc2ccc(S(=O)(=O)NC(=O)N[C@H]3CC[C@H](C)CC3)cc2)C1=O [glimepiride] | 104% | 0.486%
62 | NC(=O)NNc1ccccc1 [phenicarbazide] | 102% | -3.04%
63 | NS(=O)(=O)c1cc2c(cc1Cl)N=CNS2(=O)=O | 78.1% | -1.04%
64 | Cc1cn[nH]c1 [fomepizole] | 96.2% and 113% | -4.49% and -0.653%
65 | O=C1CN2Cc3c(ccc(Cl)c3Cl)N=C2N1 [anagrelide] | 91.3% | -4.02%
66 | CC(O)(P(=O)(O)O)P(=O)(O)O | 102% | -7.17%
67 | O=C1[C@H](CC[C@H](O)c2ccc(F)cc2)[C@@H](c2ccc(O)cc2)N1c1ccc(F)cc1 [ezetimibe] | 100% | 0.24%
